Reference: PubChem BioAssay AID720504 (National Center for Advancing Translational Sciences (NCATS), 2013)
In all, about 360,000 compounds went through this assay and about 10,000 (2.8%) were called active. Inconclusive results, whose numbers are uncertain, are shown with a selection of clear calls. Calls follow the shape of the dose curve; as a rule, active = well fitted inhibition curve with a large enough effect; inconclusive = small, poorly fitted or top-dose-only effect; inactive = flat fitted curve, though single readings scatter. Potencies of inconclusive entries are doubtful fits and often do not repeat.
% is scaled to controls: 0 for no effect and ±100 for the full control effect; potency is read from the fitted curve at half-maximal effect.
Also: nearly all actives have a fitted effect of over 65% in size.
For max response, negative = inhibition in this document: series mostly up to about 57 µM.

Amino acid sequences for entries named in this document (tags omitted).
UniProt P53350, whole entry, looked up: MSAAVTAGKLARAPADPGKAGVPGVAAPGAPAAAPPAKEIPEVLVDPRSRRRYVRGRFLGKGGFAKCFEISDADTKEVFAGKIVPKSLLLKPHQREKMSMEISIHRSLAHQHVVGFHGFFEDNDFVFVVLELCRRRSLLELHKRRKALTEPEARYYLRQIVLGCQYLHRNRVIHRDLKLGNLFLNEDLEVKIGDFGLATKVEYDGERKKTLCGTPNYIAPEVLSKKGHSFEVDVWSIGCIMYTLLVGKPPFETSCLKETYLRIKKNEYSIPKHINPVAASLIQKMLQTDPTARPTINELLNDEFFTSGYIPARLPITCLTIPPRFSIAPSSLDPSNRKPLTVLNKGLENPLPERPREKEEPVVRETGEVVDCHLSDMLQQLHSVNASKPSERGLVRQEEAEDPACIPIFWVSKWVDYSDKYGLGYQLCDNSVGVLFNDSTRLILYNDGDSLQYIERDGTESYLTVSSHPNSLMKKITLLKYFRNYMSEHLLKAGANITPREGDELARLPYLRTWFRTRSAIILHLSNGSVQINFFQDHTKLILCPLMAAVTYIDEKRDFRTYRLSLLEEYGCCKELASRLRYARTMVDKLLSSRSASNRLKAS

What follows are compounds tested against Serine/threonine-protein kinase PLK1 (Homo sapiens) (UniProt P53350) (assay: qHTS for Inhibitors of PLK1-PDB (polo-like kinase 1 - polo-box domain): Primary Screen). Conditions: Plk1 PBD binding of FITC phosphopeptide, fluorescence polarization.
`CC1CCc2c(sc(N)c2C(N)=O)C1` (centres undefined) was tested, and the Potency was active: 26.7 µM.
For `N#Cc1cccc2c1-c1ccccc1/C2=N/NC(N)=S`, the max response, negative = inhibition was inactive: -11.1%.
In the case of `O=C(CBr)Nc1c2c(nn1-c1ccccc1)CSC2`, the Potency is reported as inconclusive: 26.7 µM [inhibitor, single point].
With `CC/C=C\C/C=C\C/C=C\CCCCCCCC(=O)O` the Potency was inconclusive: 16.8 µM [inhibitor, partial curve].
In the case of `CCOC(=O)c1c(CC(C)C)csc1N`, the max response, negative = inhibition is reported as inconclusive: -30.4% [inhibitor].
With `CCOC(=O)c1c(NC(=O)COC(=O)CNC(=O)c2ccco2)sc(C)c1C` the Potency was active: 3.36 µM.
`NS(=O)(=O)c1cccc(NC(=O)CCSc2ccc(Cl)cc2)c1` was tested, and the Potency was active: 11.9 µM.
`O=[N+]([O-])c1cc(-c2ncccn2)c([N+](=O)[O-])s1` was tested, and the Potency was active: 2.67 µM.
With `Cc1c(C(=O)COC(C)(C)C)[nH]c2ccccc12` the Potency was inconclusive: 23.8 µM [inhibitor, single point].
With `COC(=O)COc1ccc2c(-c3ccc(OC)cc3)cc(=O)oc2c1` the max response, negative = inhibition was inactive: -1.34%.
With `Oc1ccc(/C=N/Nc2ccnc3cc(Cl)ccc23)c(O)c1O` the Potency was active: 2.12 µM.
For `Cc1nn(C)c(Oc2cccc(C(F)(F)F)c2)c1C=O`, the max response, negative = inhibition was inconclusive: -32.4% [inhibitor].
`COc1ccc(N2CCN(Cc3nc(Cc4cccc(F)c4)no3)C(C)C2)cc1` (centres undefined) was tested, and the max response, negative = inhibition was inactive: -9.05%.
For `C[C@@H]1CN([C@H](C)CO)C(=O)CCCn2nncc2CO[C@H]1CN(C)C(=O)Nc1ccnc(N2CCOCC2)c1`, the max response, negative = inhibition was inactive: -1.98%.
With `Oc1ccc(Cl)cc1-c1cc(-c2ccco2)[nH]n1` the Potency was active: 5.32 µM.
With `Cc1cccc(NC(=O)Cn2c(O)c(N=NC(=O)c3ccccc3O)c3ccccc32)c1` the Potency was inconclusive: 75.2 µM [inhibitor, partial curve].
For `CCc1ccc(C(=O)CSc2nc(N)cc(=O)[nH]2)cc1`, the max response, negative = inhibition was inactive: -1.37%.
In the case of `Cc1ccc(OCC(=O)c2cc(C)n(C)c2C)c([N+](=O)[O-])n1`, the max response, negative = inhibition is reported as inactive: -7.8%.
With `Cc1ccc(-c2csc3ncnc(Nc4ccc(N5CCOCC5)cc4)c23)cc1` the Potency was active: 26.7 µM.
With `CCc1ccc(Nc2n[n+](-c3ccccc3)c(-c3ccc(OC)c(Br)c3)s2)cc1` the Potency was inconclusive: 18.9 µM [inhibitor, partial curve].
With `CCCc1c(OCCCOc2ccc(OCC(=O)O)cc2)ccc(C(C)=O)c1O` the Potency was inconclusive: 23.8 µM [inhibitor, single point].
`O=C(O)c1ccccc1SC1CC(=O)N(c2cccc3ccccc23)C1=O` (centres undefined) was tested, and the Potency was active: 29.9 µM.
`O=S(=O)(c1ccc(Cl)cc1)N1CCC2(CC1)CO2` was tested, and the Potency was inconclusive: 18.9 µM [inhibitor, partial curve].
For `CCC(=O)N1CCN(c2ccccc2NC(=S)NC(=O)c2ccco2)CC1`, the Potency was inconclusive: 26.7 µM [inhibitor, single point].
In the case of `COc1cccc(/C=C/C2=CC(C)(C)NC(=S)N2)c1`, the Potency is reported as inconclusive: 21.2 µM [inhibitor, partial curve].
`CC(=O)Nc1cccc(C(=O)OCC(=O)c2ccc(S(=O)(=O)N3CCCCC3)cc2)c1` was tested, and the max response, negative = inhibition was inactive: -29.8%.
In the case of `CCNS(=O)(=O)c1ccc(OCCNS(C)(=O)=O)cc1`, the max response, negative = inhibition is reported as inactive: -9.34%.
For `Cc1nnc(SCC(=O)Nc2ccc(N(C)C)cc2)n(N)c1=O`, the Potency was inconclusive: 26.7 µM [inhibitor, single point].
For `COc1ccc(NC(=S)NCCCc2ccccc2)cc1`, the Potency was inconclusive: 26.7 µM [inhibitor, partial curve].
`COc1cc(CNc2ccc(N3CCCC3)cc2)cc(Cl)c1OC` was tested, and the Potency was active: 21.2 µM.
`Cc1cc(C)nc(N2CCC(C(=O)NCc3ccccc3)CC2)n1` was tested, and the Potency was inconclusive: 23.8 µM [inhibitor, single point].
In the case of `C#CCNC(=O)C1=C[C@H](C(C)(C)C)C[C@H](OCCCCO)O1`, the max response, negative = inhibition is reported as inactive: -2.27%.
In the case of `CC(C)C(=O)Nc1nnc(Sc2ccc(N(C)C)cc2)s1`, the Potency is reported as inconclusive: 21.2 µM [inhibitor, partial curve].
With `Cc1cc(C)c(C#N)c(SCC(=O)N2CCCCC2)n1` the Potency was inconclusive: 29.9 µM [inhibitor, partial curve].
For `COc1ccc(NC(=O)N2c3ccc(OC)cc3C(C)=CC2(C)C)cc1`, the max response, negative = inhibition was inactive: -12.3%.
In the case of `Nc1cccnc1Sc1cccc(Cl)c1`, the Potency is reported as inconclusive: 13.4 µM [inhibitor, partial curve].
In the case of `CCCn1c(SCC(=O)c2ccc3c(c2)NC(=O)CO3)nc2ccccc21`, the Potency is reported as active: 9.47 µM.
`CCn1c(CNC(=O)c2ccc(Cl)cc2)nnc1SCC(=O)NC1=NCCS1` was tested, and the max response, negative = inhibition was inactive: -7.52%.
`Cc1ccc(OCC(=O)OCC(=O)c2c(N)n(C)c(=O)n(C)c2=O)cc1C` was tested, and the max response, negative = inhibition was inactive: -0.625%.
With `CCOc1ccc2nc(N3C(=O)/C(=C/c4ccccc4)NC3=S)sc2c1` the Potency was inconclusive: 26.7 µM [inhibitor, single point].
For `S=C(NCc1ccccc1)N1CCN(C2CCCCC2)CC1`, the Potency was inconclusive: 23.8 µM [inhibitor, single point].
With `Cc1cc(C(=O)N(C2CCCCC2)C2CCCCC2)no1` the max response, negative = inhibition was inactive: -12.3%.
`N#Cc1ccccc1S(=O)(=O)N1CCN(Cc2c(O)ccc3ccccc23)CC1` was tested, and the Potency was inconclusive: 7.52 µM [inhibitor, partial curve].
For `O=C(CSc1cc([N+](=O)[O-])cc(S(=O)(=O)Cc2ccccc2)c1)NC1CC1`, the Potency was inconclusive: 21.2 µM [inhibitor, partial curve].
In the case of `CC1=CC(=O)C(C(C)C)=C/C1=C(\c1cc(C(C)C)c(OP(=O)(O)O)cc1C)c1ccccc1C(=O)O`, the Potency is reported as inconclusive: 26.7 µM [inhibitor, partial curve].
In the case of `Cc1ccc(S(=O)(=O)Nc2cccc3ncccc23)cc1`, the Potency is reported as inconclusive: 23.8 µM [inhibitor, single point].
`CCOc1ccc(N(CC(=O)N2CCC(Cc3ccccc3)CC2)S(C)(=O)=O)cc1` was tested, and the max response, negative = inhibition was inactive: 0.508%.
With `CCOC(=O)C1(CC2CCCCO2)CCN(C(=O)Nc2ccc(C)c(C)c2)CC1` (centres undefined) the Potency was inconclusive: 37.7 µM [inhibitor, single point].
With `Cc1cc(Nc2ccccc2Br)n2nc(C)nc2n1` the max response, negative = inhibition was inconclusive: -32.7% [inhibitor].
For `Cc1ccc(C(=O)ONc2ccc(N=NC(=O)c3ccccc3O)cc2)cc1`, the Potency was inconclusive: 16.8 µM [inhibitor, partial curve].
For `O=C(CSc1nc(-c2ccc(F)cc2)nc2ccc(F)cc12)Nc1cccc(C(=O)O)c1`, the Potency was inconclusive: 37.7 µM [inhibitor, single point].
`O=c1[nH]c(=S)[nH]c2c1C(c1ccc(Cl)cc1)OC(C1CCCCC1)C2` (centres undefined) was tested, and the Potency was inconclusive: 29.9 µM [inhibitor, single point].
With `COc1cccc2sc(Nc3nc(-c4ccncc4)cs3)nc12` the max response, negative = inhibition was inactive: -4.17%.
With `Cc1[nH]n(-c2ccc(Br)cc2)c(=O)c1C=Nc1ccc(S(=O)(=O)Nc2nccs2)cc1` the Potency was inconclusive: 37.7 µM [inhibitor, single point].
In the case of `O=C(c1ccc(CS(=O)Cc2cccc(Cl)c2)o1)N1CCN(C2CCCCC2)CC1` (centres undefined), the max response, negative = inhibition is reported as inactive: -3.39%.
In the case of `O=C(Nc1nc(-c2ccccn2)cs1)C12CC3CC(CC(O)(C3)C1)C2`, the Potency is reported as inconclusive: 18.9 µM [inhibitor, partial curve].
For `Cc1[nH]c2ccccc2c1C(=O)CN1CCN(c2ccc(Cl)cc2)CC1`, the Potency was inconclusive: 29.9 µM [inhibitor, single point].
In the case of `COc1ccc(CNC(=O)CNS(=O)(=O)c2cccc(C#N)c2)cc1OC`, the Potency is reported as inconclusive: 29.9 µM [inhibitor, partial curve].
With `Cc1ccc(C)n1-c1nc(=S)[nH][nH]1` the Potency was active: 23.8 µM.
With `COc1ccc2c(-c3ccccc3)cc(=S)[nH]c2c1` the Potency was inconclusive: 0.844 µM [inhibitor, full curve].
With `CCOc1ccc2cc(C3CC(c4ccco4)=NN3S(C)(=O)=O)c(=O)[nH]c2c1` (centres undefined) the Potency was inconclusive: 26.7 µM [inhibitor, single point].
In the case of `S=C(c1ccc(Br)cc1)N1CCCC1`, the Potency is reported as inconclusive: 15 µM [inhibitor, partial curve].
With `CCC1(c2ccccc2)NC(=O)N(CC(=O)Nc2ccc(OC)nc2)C1=O` (centres undefined) the Potency was active: 13.4 µM.
For `N#CCCN1CCN(C(=S)c2ccc(-c3ccc(Cl)cc3)o2)CC1`, the Potency was inconclusive: 26.7 µM [inhibitor, partial curve].
For `COc1ccc(CCNC(=O)CN(CCc2ccccc2)S(C)(=O)=O)cc1OC`, the Potency was inconclusive: 18.9 µM [inhibitor, partial curve].
In the case of `CC(C)CCSc1nc(N)c(C#N)cc1C#N`, the max response, negative = inhibition is reported as inconclusive: -31.3% [inhibitor].
For `CCC(CO)Oc1cc(NC(=O)c2ccc(F)cc2)c2ncn(C(C)C)c2c1` (centres undefined), the Potency was inconclusive: 21.2 µM [inhibitor, single point].
`O=C(Nc1nncs1)c1cc(-c2ccco2)nc2ccccc12` was tested, and the Potency was inconclusive: 33.6 µM [inhibitor, partial curve].
`CSc1nc2ncncc2[nH]1` was tested, and the max response, negative = inhibition was inactive: 2.63%.
In the case of `Cc1ccc(N=c2ssnc2Cl)cc1`, the Potency is reported as active: 1.68 µM.
In the case of `CCOC(=O)c1ccc(NC(=O)C(=O)NCc2ccncc2)cc1`, the max response, negative = inhibition is reported as inactive: -1.25%.
`Cc1snc(S(=O)(=O)/C(C#N)=N/Nc2ccc(C(F)(F)F)cc2)c1C#N` was tested, and the max response, negative = inhibition was inconclusive: -32.5% [inhibitor].
`Cc1cccc(C2c3[nH]c4ccccc4c3CCN2C(=O)c2noc3c2CCCC3)n1` (centres undefined) was tested, and the max response, negative = inhibition was inactive: 1.63%.
For `CC(C)Cc1c2c([nH]c(=S)c1C#N)CCCC2`, the Potency was active: 26.7 µM.
